Results are given in words; binding and its absence hold for the method and conditions named. In cells and extracts the contact can be indirect. Some results given as binding are weak or reduced against the parent protein; the word gives no strength.
Key:
[1] = molecular target: Bag3 (human (endogenous in MCF-7 and T47D lines)) (UniProt O95817); assay: co-IP; five successive precipitations with Bim or Bag3 antibody and protein G sepharose from cell lysates, pooled, blot for Hsp70; percent of the Hsp70 of the lysate that was pulled down; MCF-7, MCF-7/R1, MCF-7/R2, MCF-7/TAM-R, T47D, T47D/TAM-R
[2] = molecular target: heat shock protein 70 (Hsp70) (human (endogenous in MCF-7 and T47D lines)) (UniProt P0DMV8); assay: co-IP; Hsp70 antibody, protein G sepharose, endogenous proteins in lysates (IP buffer: 10 mM HEPES pH 7.4, 50 mM NaCl, 5 mM MgCl2, 1 mM EGTA, 5% glycerol, 0.5% Triton X-100; overnight 4 °C) of MCF-7, MCF-7/R1, MCF-7/R2, MCF-7/TAM-R, T47D, T47D/TAM-R cells and MCF-7/TAM-R xenograft tumors; cells or mice untreated or treated with S1g-2, MKT-077 or VER-155008; blots for Bim, Bag3, ERα36, ERα66

Protein sequences, listed by entry. Tags and fused reporters are not part of them. Lines headed by an entry give the natural chain unless they say otherwise; changes in a name come on top.
UniProt O95817: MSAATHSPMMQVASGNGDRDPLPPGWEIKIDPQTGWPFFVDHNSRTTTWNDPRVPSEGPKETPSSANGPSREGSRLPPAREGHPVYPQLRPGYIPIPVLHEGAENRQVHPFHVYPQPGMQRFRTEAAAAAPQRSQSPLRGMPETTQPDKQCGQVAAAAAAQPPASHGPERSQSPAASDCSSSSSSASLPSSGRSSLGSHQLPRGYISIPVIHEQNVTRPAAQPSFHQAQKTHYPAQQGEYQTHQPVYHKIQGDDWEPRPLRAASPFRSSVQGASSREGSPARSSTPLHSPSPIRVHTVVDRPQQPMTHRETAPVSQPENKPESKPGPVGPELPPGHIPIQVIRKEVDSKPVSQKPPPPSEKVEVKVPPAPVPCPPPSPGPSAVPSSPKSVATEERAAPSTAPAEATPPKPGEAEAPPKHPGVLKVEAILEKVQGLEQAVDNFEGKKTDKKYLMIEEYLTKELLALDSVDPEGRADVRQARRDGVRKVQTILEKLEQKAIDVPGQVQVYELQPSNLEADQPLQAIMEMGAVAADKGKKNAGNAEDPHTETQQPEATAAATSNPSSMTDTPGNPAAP
UniProt P0DMV8: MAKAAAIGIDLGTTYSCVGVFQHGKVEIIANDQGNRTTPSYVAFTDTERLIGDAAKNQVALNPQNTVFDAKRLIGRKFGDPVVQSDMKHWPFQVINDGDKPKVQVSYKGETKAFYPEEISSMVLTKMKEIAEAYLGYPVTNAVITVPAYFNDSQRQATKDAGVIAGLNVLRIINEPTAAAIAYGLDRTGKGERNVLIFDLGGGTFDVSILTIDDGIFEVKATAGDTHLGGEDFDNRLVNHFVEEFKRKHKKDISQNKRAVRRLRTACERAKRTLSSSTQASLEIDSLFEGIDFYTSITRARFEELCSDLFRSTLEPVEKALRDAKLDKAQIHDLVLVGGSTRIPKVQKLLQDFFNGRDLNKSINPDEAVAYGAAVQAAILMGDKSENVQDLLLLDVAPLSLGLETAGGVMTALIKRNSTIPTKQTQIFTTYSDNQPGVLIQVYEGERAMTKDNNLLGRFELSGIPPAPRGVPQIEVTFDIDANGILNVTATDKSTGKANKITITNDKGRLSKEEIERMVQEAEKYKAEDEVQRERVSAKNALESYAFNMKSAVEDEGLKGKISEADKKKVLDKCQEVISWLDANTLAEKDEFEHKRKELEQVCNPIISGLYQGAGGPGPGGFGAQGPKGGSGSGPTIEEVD

Substance: heat shock protein 70 (Hsp70) (from UniProt P0DMV8 1-641)
- binding [1]: binds

Substance: Bag3 (from UniProt O95817 1-575)
- binding [2]: binds

Source: PMC10895875
